Results from patent US20080139626A1, “Novel Method” (priority 2005, published 2008).
For at least one compound, name, drawing or mass did not settle the structure.

Key:
Test in all cases: MIC by broth microdilution
Format in all cases: cell-based
[1] = system: S. pneumoniae (macrolide-resistant); conditions: N=552
Procedure: (§1) Whole-cell antimicrobial activity was determined by broth microdilution. Test compounds were dissolved in DMSO and diluted 1:10 in water to produce a 64 mcg/ml stock solution. Using a 96 well microtitre plate, a Microlab AT Plus 2 (Hamilton Co., Reno, Nev.) serially diluted 50 ul of the stock solution into an appropriate broth medium. Staphylococcal isolates were tested using cation adjusted Mueller Hinton broth. For S. pneumonaie testing, the Mueller Hinton broth was supplemented with 5% lysed horse blood and H. influenzae was tested with Haemophilus Test Medium. After the compounds were diluted, a 50 ul aliquot of the test isolate (˜1×10^6 cfu/ml) prepared in normal saline was added to each well of the microtitre plate. The final test concentrations ranged from 0.016-16 ug/mL. Inoculated plates were incubated at 35° C. in ambient air for 18 to 24 hours. The minimum inhibitory concentration (MIC) was determined as the lowest concentration of compound that inhibited visible growth.

[2] = system: S. pneumoniae (levofloxacin-resistant); conditions: N=13
Procedure: as §1

[3] = system: S. pneumoniae (penicillin-resistant); conditions: N=352
Procedure: as §1

[4] = system: S. aureus (methicillin-resistant); parameters: unit not given beside the values; conditions: N=51
Procedure: as §1

Row | SMILES | MIC Range [1] | MIC Range [2] | MIC Range [3] | MIC Range [4]
1 | C[C@H]1COc2c(N3CCN(C)CC3)c(F)cc3c(=O)c(C(=O)O)cn1c23 [Levofloxacin] | 0.12->8 | 8->8 | 0.12->8 | 0.06->8
2 | COc1c(N2C[C@@H]3CCCN[C@@H]3C2)c(F)cc2c(=O)c(C(=O)O)cn(C3CC3)c12 [Moxifloxacin] | 0.015->8 | 0.5->8 | 0.03->8 | 0.03->8
